This assay concerns the target P4HA2-FLAG, full length, overexpressed in HEK293T cells (UniProt O15460). The experiment in a line: co-IP; lysates of HEK293T cells overexpressing P4HA2-FLAG and/or ATAD3A-HA, full length or truncated; western blot.

By UniProt entry, the sequences of proteins in these tests, tags left out. Residues count along the entry.
UniProt O15460, residues 22-535: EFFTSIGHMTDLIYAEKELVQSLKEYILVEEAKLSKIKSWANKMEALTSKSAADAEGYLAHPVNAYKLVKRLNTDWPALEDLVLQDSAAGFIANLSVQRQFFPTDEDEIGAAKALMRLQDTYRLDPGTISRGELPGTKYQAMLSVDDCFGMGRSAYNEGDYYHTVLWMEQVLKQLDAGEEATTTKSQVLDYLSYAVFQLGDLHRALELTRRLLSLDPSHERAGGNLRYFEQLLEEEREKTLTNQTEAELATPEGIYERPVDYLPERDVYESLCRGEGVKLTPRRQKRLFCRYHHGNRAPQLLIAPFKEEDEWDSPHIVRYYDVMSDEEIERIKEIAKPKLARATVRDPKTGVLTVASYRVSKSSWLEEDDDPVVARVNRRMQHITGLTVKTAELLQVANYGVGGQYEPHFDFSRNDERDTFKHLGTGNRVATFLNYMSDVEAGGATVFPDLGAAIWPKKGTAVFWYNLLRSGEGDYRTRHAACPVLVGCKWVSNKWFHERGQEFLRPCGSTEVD

Results are given in words; binding and its absence hold for the method and conditions named. In cells and extracts the contact can be indirect. Some binding calls cover weakened binding; strength is not graded here. Sequences can lack the tags named with a protein.

B1: ATAD3A-HA, full length, overexpressed in HEK293T cells (protein, UniProt Q9NVI7-2 1-586)
chain: MSWLFGINKGPKGEGAGPPPPLPPAQPGAEGGGDRGLGDRPAPKDKWSNFDPTGLERAAKAARELEHSRYAKDALNLAQMQEQTLQLEQQSKLKEYEAAVEQLKSEQIRAQAEERRKTLSEETRQHQARAQYQDKLARQRYEDQLKQQQLLNEENLRKQEESVQKQEAMRRATVEREMELRHKNEMLRVEAEARARAKAERENADIIREQIRLKAAEHRQTVLESIRTAGTLFGEGFRAFVTDWDKVTATVAGLTLLAVGVYSAKNATLVAGRFIEARLGKPSLVRETSRITVLEALRHPIQVSRRLLSRPQDALEGVVLSPSLEARVRDIAIATRNTKKNRSLYRNILMYGPPGTGKTLFAKKLALHSGMDYAIMTGGDVAPMGREGVTAMHKLFDWANTSRRGLLLFVDEADAFLRKRATEKISEDLRATLNAFLYRTGQHSNKFMLVLASNQPEQFDWAINDRINEMVHFDLPGQEERERLVRMYFDKYVLKPATEGKQRLKLAQFDYGRKCSEVARLTEGMSGREIAQLAVSWQATAYASEDGVLTEAMMDTRVQDAVQQHQQKMCWLKAEGPGRGDEPSPS
As for B1, the binding entry was “binds”.

For the origin of these results see publication PMC12501296.
